The results in this text go back to article PMC9534863.

Amino acid sequences for entries named in this document (tags omitted). Residues count along the entry.
UniProt P10909, residues 23-449: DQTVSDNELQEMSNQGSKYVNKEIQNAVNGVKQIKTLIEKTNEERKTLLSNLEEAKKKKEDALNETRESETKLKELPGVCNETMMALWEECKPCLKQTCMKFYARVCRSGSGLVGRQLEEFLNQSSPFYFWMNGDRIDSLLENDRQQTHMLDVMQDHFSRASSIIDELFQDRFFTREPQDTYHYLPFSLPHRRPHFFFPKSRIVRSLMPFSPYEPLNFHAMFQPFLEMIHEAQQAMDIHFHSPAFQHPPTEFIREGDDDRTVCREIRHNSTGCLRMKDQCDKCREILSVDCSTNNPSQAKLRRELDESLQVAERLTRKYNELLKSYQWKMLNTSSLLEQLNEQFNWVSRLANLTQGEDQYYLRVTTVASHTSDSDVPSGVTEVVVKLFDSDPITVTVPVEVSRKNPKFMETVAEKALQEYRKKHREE

Holding throughout (assay): co-IP; endogenous proteins in LF cell lysate (lysis buffer, Beyotime); antibody 4 °C 2 h, then protein A/G agarose 2 h, 5 washes with lysis buffer, elution in SDS loading buffer, western blot; for CLU and ALK5 the cells were treated with 5 ng/ml TGF-β1 for 24 h beforehand
In general terms: A western blot detects proteins with antibodies after separation by electrophoresis.

The target of experiment [1] is T1, protein kinase D3 (PRKD3) (human (endogenous in LF cells)) (UniProt O94806).
T1 sequence: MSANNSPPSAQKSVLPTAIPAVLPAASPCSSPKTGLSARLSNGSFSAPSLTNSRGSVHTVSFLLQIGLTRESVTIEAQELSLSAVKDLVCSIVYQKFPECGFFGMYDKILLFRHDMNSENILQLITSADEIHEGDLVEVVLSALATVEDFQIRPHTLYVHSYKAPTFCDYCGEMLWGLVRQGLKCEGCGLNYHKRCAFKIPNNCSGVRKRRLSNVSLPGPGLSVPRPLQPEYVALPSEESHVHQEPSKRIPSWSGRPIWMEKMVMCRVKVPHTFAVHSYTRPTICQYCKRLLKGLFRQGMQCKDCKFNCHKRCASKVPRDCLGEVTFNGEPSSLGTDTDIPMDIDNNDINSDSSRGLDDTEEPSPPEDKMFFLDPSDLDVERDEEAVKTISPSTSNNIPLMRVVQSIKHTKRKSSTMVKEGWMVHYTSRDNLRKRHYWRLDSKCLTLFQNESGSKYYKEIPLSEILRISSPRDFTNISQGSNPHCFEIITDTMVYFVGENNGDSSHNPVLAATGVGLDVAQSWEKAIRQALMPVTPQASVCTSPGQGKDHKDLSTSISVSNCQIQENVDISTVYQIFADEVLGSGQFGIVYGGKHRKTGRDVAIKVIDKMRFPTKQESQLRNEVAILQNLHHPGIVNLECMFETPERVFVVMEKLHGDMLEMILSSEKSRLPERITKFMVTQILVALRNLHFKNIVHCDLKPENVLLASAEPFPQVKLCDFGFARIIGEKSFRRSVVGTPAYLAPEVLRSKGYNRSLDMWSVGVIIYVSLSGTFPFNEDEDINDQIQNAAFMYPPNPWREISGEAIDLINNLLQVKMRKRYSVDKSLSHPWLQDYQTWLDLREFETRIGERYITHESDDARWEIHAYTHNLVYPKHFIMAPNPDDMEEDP

The target in experiment [2] is T2, Activin receptor-like kinase 5 (ALK5) (human (endogenous in LF cells)) (UniProt P36897).
T2 sequence: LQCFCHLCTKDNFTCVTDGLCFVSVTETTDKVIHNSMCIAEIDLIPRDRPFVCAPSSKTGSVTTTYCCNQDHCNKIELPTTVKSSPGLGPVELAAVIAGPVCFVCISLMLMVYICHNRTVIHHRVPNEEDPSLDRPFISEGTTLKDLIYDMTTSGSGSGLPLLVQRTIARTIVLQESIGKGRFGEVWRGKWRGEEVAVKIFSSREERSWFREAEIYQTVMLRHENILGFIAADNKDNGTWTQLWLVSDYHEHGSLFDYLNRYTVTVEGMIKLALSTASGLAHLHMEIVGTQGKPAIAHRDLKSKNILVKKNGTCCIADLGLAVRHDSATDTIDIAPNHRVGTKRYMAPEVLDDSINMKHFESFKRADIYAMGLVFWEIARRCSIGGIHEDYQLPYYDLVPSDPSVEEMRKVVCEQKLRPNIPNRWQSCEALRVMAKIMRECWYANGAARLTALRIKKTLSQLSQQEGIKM

Experiment [3] has as its target clusterin (CLU) (human (endogenous in LF cells)) (UniProt P10909).

Results are given in words; binding and its absence hold for the method and conditions named. Binding seen in cells or lysates may run through a third protein. Some results given as binding are weak or reduced against the parent protein; the word gives no strength.

Consider “clusterin (CLU) (from UniProt P10909 23-449)”, for which the binding entry in experiment [1] and in experiment [2] was “binds” throughout.

B1: protein kinase D3 (PRKD3) (enzyme, UniProt O94806 1-890)
chain: T1 sequence
Turning to B1, the binding entry in experiment [3] was “binds”.

B2: Activin receptor-like kinase 5 (ALK5) (receptor, UniProt P36897 34-503)
chain: T2 sequence
With B2, the binding result in experiment [3] is “binds”.
